# Measurements: paper PMC12548414
# About 20 (1%) of roughly 1,600 compounds showed an effect of 50% or more. The list shows a part of the results.
# Test system: T1, E. coli pLC1021 (luc-trpAt trans-translation reporter)
# T1 construct: pLC1021 luc-trpAt reporter strain
# Set-up: species or system Escherichia coli pLC1021; luc-trpAt non-stop luciferase reporter; luminescence rises when trans-translation is inhibited; normalized to KKL-35 and DMSO
# Settings: reporter signal, KKL-35 = 100%; rise means trans-translation inhibition; 2 h, 20 µM
# Summary of the method: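 Luminescence (560 nm, 10 min after Bright-Glo) reports luciferase that escapes trans-translation tagging, measured after 2 h room-temperature treatment with 20 µM compound. Each plate was scaled between DMSO (negative) and 20 µM KKL-35 (positive) controls. Compounds scoring one standard deviation above the median counted as positive; at least two biological repeats.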
row,Structure (SMILES),% activation
1,Cc1nn(C)c(C)c1-c1cc(C(=O)NCc2cc(CC(C)C)no2)n[nH]1 [KKL-0507],0%
2,Cc1ccc(-c2nnc(SCC#CCOC(=O)c3ccco3)o2)cc1 [KKL-1392],0%
3,CCOC(=O)COc1c(Cl)cc(/C=C(/C#N)c2nc3cc(OC)ccc3[nH]2)cc1Cl [KKL-0592],0%
4,COC(=O)COc1ccc2c(=O)c(-c3ccccc3Cl)c(C)oc2c1 [KKL-0748],0%
5,Oc1ccc(Br)c2cccnc12 [KKL-0093],371%
6,COc1ccc(Cc2nc3ccc(C(=O)NCCCSC)cc3o2)cc1 [KKL-1182],0%
7,COC(=O)c1ccc(COC(=O)c2ccccc2Cl)cc1 [KKL-1465],0%
8,OC1=C2C(=Nc3ccccc3NC2c2ccc(C(F)(F)F)cc2)CC(c2ccc(Cl)cc2)C1 (centres unmarked) [KKL-1366],0%
9,O=C(CN(c1ccc(Cl)c(Cl)c1)S(=O)(=O)c1ccccc1)Nc1cccc([N+](=O)[O-])c1 [KKL-1361],2%
10,Cc1cccc(-c2ccc(NC(=O)C3CCN(Cc4ccc(C#CCO)s4)CC3)cc2)c1 [KKL-1139],8%
11,CCOC(=O)CSc1n[nH]c(-c2ccc(Cl)cc2)n1 [KKL-0589],0%
12,Cc1cc(Sc2ncnc(N)c2[N+](=O)[O-])ncn1 [KKL-0861],0%
13,CCOc1ccc(NC(=O)CSc2nnc(-c3ccccc3Cl)o2)cc1 [KKL-1498],2%
14,Cc1ccc(Cc2cnc(NC(=O)c3cccs3)s2)cc1 [KKL-1628],0%
15,c1ccc(CC2CCN(c3nc4ccccc4n4cnnc34)CC2)cc1 [KKL-1607],0%
16,CCCOc1ccccc1-c1n[nH]c(SCC(=O)OCC)n1 [KKL-1289],5%
17,COc1ccc(CN2CCC(O)(c3cccnc3)CC2)cc1COc1ccccc1F [KKL-0345],3%
18,CSc1ncc(C(=O)NC2(c3ccccc3)CCCC2)cn1 [KKL-0465],0%
19,CCOC(=O)c1c(NC(=O)c2c(F)c(F)c(F)c(F)c2F)sc(C(N)=O)c1C [KKL-0976],5%

# Ordered by formula weight (low to high): part of the list above
row,Structure (SMILES),% activation
11,CCOC(=O)CSc1n[nH]c(-c2ccc(Cl)cc2)n1 [KKL-0589],0%
16,CCCOc1ccccc1-c1n[nH]c(SCC(=O)OCC)n1 [KKL-1289],5%
1,Cc1nn(C)c(C)c1-c1cc(C(=O)NCc2cc(CC(C)C)no2)n[nH]1 [KKL-0507],0%

# Following part:

row,Structure (SMILES),% activation
1,N#Cc1ccc(-c2ccc(OCC(N)=O)cc2)cc1 [KKL-1337],0%
2,CCC(C)Oc1ccc(C(=O)NC(=S)Nc2ccc(N3CCOCC3)cc2)cc1 (centres unmarked) [KKL-0419],0%
3,COC(=O)[C@@H](NC(=O)c1cc(COc2ccccc2)on1)c1ccccc1 [KKL-0677],2%
4,COC(=O)COc1ccc2c(=O)c(-c3ccc(Cl)cc3)coc2c1 [KKL-0789],0%
5,O=C(Oc1ccc(Cl)c2cccnc12)c1cccs1 [KKL-0415],4%
6,COC(=O)COc1ccc(CSCC(=O)Nc2ccc3ccccc3c2)cc1 [KKL-1064],6%
7,NC1CCc2nc(-c3cccnc3)nc(Nc3ccc(Cl)cc3)c2C1 (centres unmarked) [KKL-0540],119%
8,CC(NC(=O)Nc1nnc(C(F)(F)F)s1)(C(F)(F)F)C(F)(F)F [KKL-1003],0%
9,O=C(NC(=S)N1CCc2ccccc21)c1ccccc1 [KKL-1445],17%
10,Cc1ccc(NC(=S)NC[C@H]2C[C@@H]3CCN2C[C@@H]3c2cc(-c3ccc(N(C)C)cc3)nc(C)n2)c(Br)c1 [KKL-0303],0%
11,CCOC(=O)c1ccc(COC(=O)c2cccc([N+](=O)[O-])c2)cc1 [KKL-1497],3%
12,c1ccc(-c2nc(N3CCCCCC3)c3ccccc3n2)nc1 [KKL-1000],1%
13,Cc1ccc2nc(C(F)(F)F)c(C(=O)NCc3ccc(C)o3)n2c1 [KKL-1878],2%
14,CCC(C)(C)c1ccc(OCCCn2ccnc2)cc1 [KKL-1315],9%
15,CC(C)CC(=O)NC(c1ccc(Cl)cc1Cl)c1c(O)ccc2ccccc12 (centres unmarked) [KKL-1379],13%
16,Cc1cc(O)nc(-n2nc(C)cc2C)n1 [KKL-1071],6%
17,Nc1cccnc1Nc1ccc(C(F)(F)F)cc1 [KKL-1711],4%
18,Cc1ccc(-n2cnc3cc(NCc4cccs4)ccc32)cc1 [KKL-1433],3%
19,CCc1cc(C(=O)OC)c(N=C(S)NCc2ccc(Cl)c(Cl)c2)s1 [KKL-1547],0%

row,Structure (SMILES),% activation
1,O=C(C=Cc1ccccc1)N1CCN(Cc2ccc3c(c2)OCO3)CC1 [KKL-1699],1%
2,S=C(NCCc1c[nH]c2ccccc12)Nc1ccc(Nc2ccccc2)cc1 [KKL-1443],6%
3,Cc1ccc(-c2csc(-c3ccncc3)n2)cc1C [KKL-0956],0%
4,Cc1ccc(Nc2cc(C)nc(NCc3ccccc3)n2)cc1 [KKL-0951],4%
5,Cc1ccc(NCCC(=O)c2ccc([N+](=O)[O-])cc2)cc1C [KKL-0401],14%
6,COc1ccc(-c2csc(NC(=O)C3CC4C=CC3C43CC3)n2)cc1OC (centres unmarked) [KKL-0928],0%
7,CC(C)(C)c1ccc(C(=O)Nc2ccc(NC(=S)NC(=O)c3cccs3)cc2)cc1 [KKL-0310],0%
8,CC1CCCCN1C(=O)COC(=O)/C=C/c1ccc2ccccc2n1 (centres unmarked) [KKL-0816],0%
9,Cc1ccc2nc(C(F)(F)F)c(C(=O)NCc3cccc(OC(C)C)c3)n2c1 [KKL-1772],2%
10,CCC(C)c1ccc(O)c(NC(=S)NC(=O)c2cncc(Br)c2)c1 (centres unmarked) [KKL-0711],3%
11,Cc1ccc(-n2cc(CN(C)Cc3nccs3)c(-c3ccc(F)cc3)n2)cc1 [KKL-0475],2%
12,CCOC(=O)CSc1nnc(-c2ccc(Cl)cc2Cl)o1 [KKL-1192],0%
13,Cc1ccc(C)c(OCC(=O)Nc2ccc(C(=O)OC(C)C)cc2)c1C [KKL-0918],0%
14,O=C(CSc1nc2cc(Cl)ccc2o1)NCCc1ccccc1 [KKL-0837],0%
15,COc1ccc(Cc2nnc(SCC(=O)NCCc3ccccc3)o2)cc1 [KKL-1092],6%
16,CCCCCn1c(=O)c(C(=O)Nc2nc3ccccc3[nH]2)c(O)c2ccccc21 [KKL-1004],7%
17,Cn1c(-c2ccccc2)cc2c3no[n+]([O-])c3ccc21 [KKL-0374],0%
18,COc1ccc(C2(C)NN=C3Sc4ccccc4N32)cc1 (centres unmarked) [KKL-0527],5%
